The target in the test is T1, SnaB, small subunit of pristinamycin IIA synthase of Streptomyces pristinaespiralis SP92 (Streptomyces pristinaespiralis SP92) (UniProt P54993).
T1 sequence: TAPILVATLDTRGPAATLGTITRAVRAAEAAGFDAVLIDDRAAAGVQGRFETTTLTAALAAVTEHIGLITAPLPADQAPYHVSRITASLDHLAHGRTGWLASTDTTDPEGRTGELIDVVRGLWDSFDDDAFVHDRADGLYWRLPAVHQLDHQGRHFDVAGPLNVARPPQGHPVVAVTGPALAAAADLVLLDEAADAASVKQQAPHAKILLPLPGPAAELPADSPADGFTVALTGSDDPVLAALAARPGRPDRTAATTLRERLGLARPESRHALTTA
As to the kind of experiment: co-purification through ammonium sulphate, MonoQ, Phenyl Superose, Bio-Sil SEC 250 gel permeation (activity peak at 77,000) and MonoQ, then SDS-PAGE.

No constants are given. Whether binding was seen depends on the method and setting. Binding seen in cells or lysates may run through a third protein. Some results given as binding are weak or reduced against the parent protein; the word gives no strength. Tags and fused reporters may be left off the sequences shown.

B1: SnaA, large subunit of pristinamycin IIA synthase of Streptomyces pristinaespiralis SP92 (enzyme)
chain: TAPRRRITLAGIIDGPGGHVAAWRHPATKADAQLDFEFHRDNARTLERGLFDAVFIADIVAVWGTRLDSLCRTSRTEHFEPLTLLAAYAAVTEHIGLCATATTTYNEPAHIAARFASLDHLSGGRAGWNVVTSAAPWESANFGFPEHLEHGKRYERAEEFIDVVKKLWDSDGRPVDHRGTHFEAPGPLGIARPPQGRPVIIQAGSSPVGREFAARHAEVIFTRHNRLSDAQDFYGDLKARVARHGRDPEKVLVWPTLAPIVAATDTEAKQRLQELQDLTHDHVALRTLQDHLGDVDLSAYPIDGPVPDIPYTNQSQSTTERLIGLARRENLSIRELALRLMGDIVVGTPEQLADHMESWFTGRGADGFNIDFPYLPGSADDFVDHVVPELQRRGLYRSGYEGTTLRANLGIDAPRKAGAAA
As to B1, the binding entry is “binds”.

The values above are taken from patent publication US7090999.
